Experimental data as given in paper PMC7819943, “Rice protein-binding microarrays: a tool to detect cis-acting elements near promoter regions in rice”.
Some of the results follow.

Amino acid sequences for entries named in this document (tags omitted).
UniProt Q0JBA9, entry or part of it: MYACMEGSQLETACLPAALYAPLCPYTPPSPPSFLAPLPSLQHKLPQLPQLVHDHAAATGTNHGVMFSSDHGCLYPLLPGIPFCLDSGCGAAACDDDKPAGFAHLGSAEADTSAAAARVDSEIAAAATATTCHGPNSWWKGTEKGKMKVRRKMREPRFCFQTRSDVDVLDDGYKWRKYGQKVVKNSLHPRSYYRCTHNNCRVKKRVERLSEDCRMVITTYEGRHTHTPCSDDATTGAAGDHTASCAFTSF

Each sequence was assayed against OsWRKY34 (Oryza sativa, UniProt Q0JBA9 1-250) (assay: protein-binding microarray (RPBM); PBS, 2% BSA, 51.3 ng/ul salmon testes DNA, 50 uM zinc acetate, 200 nM TF, 25 C, 1 h; high values mean tight binding). Settings: protein: recombinant; tags: N-terminal polyhistidine and DsRed monomer fusion (pET32a); label: CyDye5-dUTP incorporated in the synthesized complementary strand; 3' TTTTT single-stranded linker to array surface; dsDNA, one strand shown.
Outline: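 Polyhistidine-tagged DsRed fusions of transcription factors, joined at the N-terminus, were expressed in E. coli BL21-CodonPlus and isolated on Ni–NTA. They were incubated at 200 nM for 1 h at 25 °C on a custom Agilent array, double-stranded and BSA-blocked, in PBS with 2% BSA, salmon testes DNA and 50 µM zinc acetate. The binding signal is per-feature fluorescence intensity (arbitrary units) read on an Axon 4000B scanner after washing.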

Row | Sequence | binding signal
1 | AATACGGTTTGGAAGGGATCTTTTTTGGTTGGTTGCACTGCGGAGTCACCTAGTGCAG | 9650 fluorescence intensity (a.u.)
2 | TCTCACTGTCTTTCTCACACGCACGCACGCGAGAGCGCACCGGAGTCACCTAGTGCAG | 8880 fluorescence intensity (a.u.)
3 | CGGTTAGTTAGTTGATTAGTTATCTGCATGTTTCTGTTTTCGGAGTCACCTAGTGCAG | 10200 fluorescence intensity (a.u.)
4 | AAGCTGCCTGCCTTTCGTTTTCCAGCTTCCAACGCGATCTCGGAGTCACCTAGTGCAG | 8420 fluorescence intensity (a.u.)
5 | CCACCGGCCGCCGCGCCGCGCCCCTTCTCCCAGCCGGACACGGAGTCACCTAGTGCAG | 8860 fluorescence intensity (a.u.)
6 | ACTCTACAGAAGAGCCCTAAATTTTGTTCTTTCTTGTTCTCGGAGTCACCTAGTGCAG | 8260 fluorescence intensity (a.u.)
7 | TGGACTTGTGGTCGGAGGTGGGATTGATTTGGGTGACATGCGGAGTCACCTAGTGCAG | 8900 fluorescence intensity (a.u.)
8 | GTAGCTTCTGCCTCGCGTCCGTCTCCTGCATCCGCAGTCGCGGAGTCACCTAGTGCAG | 8510 fluorescence intensity (a.u.)
9 | TCTTACTCTCTCAGTTTCAAGTTATAAAATGTTTTGGCTTCGGAGTCACCTAGTGCAG | 9020 fluorescence intensity (a.u.)
10 | AATCCGTTCATATCACCTCGCTCGCTTAGCCGTACGCGTGCGGAGTCACCTAGTGCAG | 8030 fluorescence intensity (a.u.)
11 | CTCACCCCACCGCGCCCTCTCTTCGCCGTCTGACCCGTCACGGAGTCACCTAGTGCAG | 9030 fluorescence intensity (a.u.)
12 | ACGCATGGGTTTTTTCTGTACCCTTAATCGAGATATCACTCGGAGTCACCTAGTGCAG | 11000 fluorescence intensity (a.u.)
13 | TCAGTACATCACCCAATCCAATGTTGTCTCGCAGAAATCACGGAGTCACCTAGTGCAG | 8490 fluorescence intensity (a.u.)
14 | TCACCGGCTGCTACTACCGCCTTATCGCTGCCTTGCTACCCGGAGTCACCTAGTGCAG | 10200 fluorescence intensity (a.u.)
15 | AAACTGCTCCGAATTATTTCGTACTTTCTGTTCTTGTTTTCGGAGTCACCTAGTGCAG | 9900 fluorescence intensity (a.u.)
16 | GAATTTAAAGCGTTATTTTCATTTTAGTTCTGAAATCTCACGGAGTCACCTAGTGCAG | 8220 fluorescence intensity (a.u.)
17 | TTGGTTGGTTGGGTGACATTTTATTTATTGGTTGAGGTTACGGAGTCACCTAGTGCAG | 10600 fluorescence intensity (a.u.)
18 | GACTAGGATTGTTGACCCTACATTTTTTTCCCACTTACATCGGAGTCACCTAGTGCAG | 11500 fluorescence intensity (a.u.)
19 | TTCACTGCAGCAGCTGTCTTGCTCCCTCTTTTTCATCTTGCGGAGTCACCTAGTGCAG | 9330 fluorescence intensity (a.u.)
20 | GATTTATTGCAACAGTGCGTGTGGTGGGGCGCGTGGTGGACGGAGTCACCTAGTGCAG | 11200 fluorescence intensity (a.u.)
21 | CTCTCAGACTCACACTGTCACACATGCACTCCACACTTACCGGAGTCACCTAGTGCAG | 11500 fluorescence intensity (a.u.)

Taken from above:
Entry for CCACCGGCCGCCGCGCCGCGCCCCTTCTCCCAGCCGGACACGGAGTCACCTAGTGCAG under binding signal: 8860 fluorescence intensity (a.u.)
Entry for TCACCGGCTGCTACTACCGCCTTATCGCTGCCTTGCTACCCGGAGTCACCTAGTGCAG under binding signal: 10200 fluorescence intensity (a.u.)

Additional entries

Row | Sequence | binding signal
22 | ACATACACTACACACCCTGTTCTTGCAGTACGCCAATTAACGGAGTCACCTAGTGCAG | 9780 fluorescence intensity (a.u.)
23 | CTCTAGCTACCTCGATCACCACCTCTCTCTCTCTCAAGCACGGAGTCACCTAGTGCAG | 9650 fluorescence intensity (a.u.)
24 | TTACAAGACTTAATTTCAAGGTCCGTCGATTGTCTCTCCACGGAGTCACCTAGTGCAG | 8830 fluorescence intensity (a.u.)
25 | GCACCTCAGCCTTATCATACAGTAGAATATAGAACATTTGCGGAGTCACCTAGTGCAG | 8410 fluorescence intensity (a.u.)
26 | CAACCTGTCATACACACACCTTTTTAGTTACATCATCTCTCGGAGTCACCTAGTGCAG | 8190 fluorescence intensity (a.u.)
27 | CGATCACTTCGCCCGGCCAATGCTCCGCTATAAAACCCTCCGGAGTCACCTAGTGCAG | 8310 fluorescence intensity (a.u.)
28 | TCATTTTACTATTTTACTATTTATTTTTGTGGTCTATTTACGGAGTCACCTAGTGCAG | 9260 fluorescence intensity (a.u.)
29 | GCATGGGCAGATTGTTGGGCTTTCTTTGGTTCAGCTGAACCGGAGTCACCTAGTGCAG | 9200 fluorescence intensity (a.u.)
30 | TGAAGTAATTTTCCTTAAGTATTCCTGCACGTTTGTTCTACGGAGTCACCTAGTGCAG | 8450 fluorescence intensity (a.u.)
31 | GGGTGGACTTTTCGTACTCGTGGATGGGCCTACCAAAATGCGGAGTCACCTAGTGCAG | 8410 fluorescence intensity (a.u.)
32 | ACTTGATGTTCTTTCGTTCTTTCCTGCGAAAACGTCAGGCCGGAGTCACCTAGTGCAG | 25600 fluorescence intensity (a.u.)
33 | CTTCGCCATCGTCTCCTCCTAGGCATGTGTTGTTGCTCCGCGGAGTCACCTAGTGCAG | 10700 fluorescence intensity (a.u.)
34 | AGCACACAAATGCCCAATCTGCCACTTTCCACTTCTCTGCCGGAGTCACCTAGTGCAG | 8370 fluorescence intensity (a.u.)
35 | TTATTTATTCTACATCTGACTTTAGGATCTCGTTTATACCCGGAGTCACCTAGTGCAG | 8520 fluorescence intensity (a.u.)
36 | TCTCCTTACCTGTTAACTTTCTCCCTGACAGCTATTGCAACGGAGTCACCTAGTGCAG | 9520 fluorescence intensity (a.u.)
37 | TGTTACCGGTTTCCGATCTGTACCGACATGTTTCCGTCCGCGGAGTCACCTAGTGCAG | 8240 fluorescence intensity (a.u.)
38 | CATCCATTGCGTTGGCATCACTCATATTTCATCGAGAAAGCGGAGTCACCTAGTGCAG | 8460 fluorescence intensity (a.u.)
39 | CTATATATAAACGAGCACATCTCGTCGTCCCTCGCCATTCCGGAGTCACCTAGTGCAG | 10400 fluorescence intensity (a.u.)
40 | TACTTAGCTAGCTAATCGCGTTGCTCTTTCTCGTACTATACGGAGTCACCTAGTGCAG | 8980 fluorescence intensity (a.u.)
41 | CGGGTCATTCTTGGGTCGTGGGAGTCGGATTCGGGTTTCTCGGAGTCACCTAGTGCAG | 9320 fluorescence intensity (a.u.)
42 | TGAAGGTGGGCTGCTCTAGTTGGGCTGGGCATTTTGTCGACGGAGTCACCTAGTGCAG | 9000 fluorescence intensity (a.u.)
